One series deals with RNA polymerase II. Briefly: SELEX. Particulars: selected with yeast/human RNAP II; purified native protein.
Series [1] deals with RNA polymerase (His6 RNAP + holoenzyme) (Escherichia coli). The series is described as follows: activity assay. Particulars: purified recombinant protein, protein details: His6 (Nudler Lab) or holoenzyme from Affymetrix, dose not given here.
In series [2] the test system is RNA polymerase holoenzyme (core + sigma70) (Escherichia coli). Briefly: activity in cells. The conditions noted are these: protein in cells, protein details: endogenous, tested in E. coli reporter strains, dose not given here.
In series [3] the target is T7 RNA polymerase (Bacteriophage T7) (UniProt P00573). The series is described as follows: activity in cells. Particulars: T7 RNAP specificity control, no up-regulation; protein in cells; protein details: expressed in BL21(DE3)pLysS; dose not given here.

Sequences of proteins named here, by UniProt entry; tags and fusion partners are left off. A change or cut given only in a name is not applied to a line headed by its entry.
UniProt P00573: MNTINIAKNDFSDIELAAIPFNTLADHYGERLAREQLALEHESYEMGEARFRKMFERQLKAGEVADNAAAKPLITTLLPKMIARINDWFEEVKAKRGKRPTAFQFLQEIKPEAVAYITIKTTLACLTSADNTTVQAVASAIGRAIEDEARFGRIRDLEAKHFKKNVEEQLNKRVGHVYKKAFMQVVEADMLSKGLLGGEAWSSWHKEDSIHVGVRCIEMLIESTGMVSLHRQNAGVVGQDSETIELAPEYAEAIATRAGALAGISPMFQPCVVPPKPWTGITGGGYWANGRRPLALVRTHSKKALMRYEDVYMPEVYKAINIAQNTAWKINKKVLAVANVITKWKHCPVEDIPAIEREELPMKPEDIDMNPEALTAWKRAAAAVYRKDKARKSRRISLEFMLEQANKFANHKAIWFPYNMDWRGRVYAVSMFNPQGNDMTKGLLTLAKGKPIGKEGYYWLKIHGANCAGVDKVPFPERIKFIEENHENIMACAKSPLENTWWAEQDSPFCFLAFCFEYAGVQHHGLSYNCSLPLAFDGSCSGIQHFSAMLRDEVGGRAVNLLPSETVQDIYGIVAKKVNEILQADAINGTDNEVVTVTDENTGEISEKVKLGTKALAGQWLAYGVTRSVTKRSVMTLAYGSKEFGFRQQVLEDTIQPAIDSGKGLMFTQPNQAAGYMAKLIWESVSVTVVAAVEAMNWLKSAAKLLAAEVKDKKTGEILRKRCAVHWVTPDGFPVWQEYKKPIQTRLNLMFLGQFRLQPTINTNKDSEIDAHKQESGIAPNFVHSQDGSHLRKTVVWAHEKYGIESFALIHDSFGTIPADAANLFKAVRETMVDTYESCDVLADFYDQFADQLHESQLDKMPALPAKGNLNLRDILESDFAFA

The exact form of at least one protein or probe is not confirmed. For some assays here: A negative result means that nothing was seen under these conditions.

The values below come from patent US20180073026.

Consider AUUGCUUUUCCACACGGAUUCCAACCACUGC [yh12], for which the selection result in the series on RNA polymerase II was “selected”. Take “AUUGCUUUUCCACACGGAUUCCAACCGAUAUCAUAC [yh13]”: in the series with RNA polymerase II, the selection result is given as “selected”.

Regarding “AUUGCUUUUCCACACGGAUUCCAACCGCUAUCCAAACACUCAUCCC [yh32]”, the selection result with RNA polymerase II is given as “selected”. Take CACUUUGUACUUUAUUGGAGUUUUCCUCC [yh37]: the selection result with RNA polymerase II was “selected”. On to “CAGAUCAGGUCAGCUCAGGAUAAUUCAAAUUCAGAUAAUGAGGCACAGACUAAUCAUAACACGAAAAUUGUCAUCC [yh40]”, for which the selection result with RNA polymerase II is on record as “selected”. Regarding “CCACUUCACCAUCGAUCCUUCCCGCAUUAAACAACAUGUCCGUUUU [RAP #2136]”, the “functional effect of the aptamer” value is “active” in series [1] (in vitro transcription, Rho-dependent termination) and “active” in series [2] (inhibiting). In the case of “CCAUACCAGCAUGAUGGAUACCAAAACCAAAUUGAAGAAUCUCCUUCC [yh11]”, the selection result with RNA polymerase II is listed as “selected”. For the sequence “GAGCAAAUCAGGCAGUCCUUACCCACUCCCCUCCCUG [yh2]”, in the series with RNA polymerase II, the selection result was “selected”.

As for “GAGCAUACGUAGUUGUAGUUUUCAUUUUGAUGGCUUAACCUUCUUUGUCAGC [yh45]”, the selection result in the series with RNA polymerase II is reported as “selected”. Consider “GAGCAUAUUGGACAGGUUGUACUUGAUUAGAAAACACAAUCAUGCGGUAAUAUUAAGCCAUACUCAACAGCGCCAUCC [yh44]”, for which the selection result with RNA polymerase II is listed as “selected”. In the case of “GAGCCAACUACAUCGACCAAUUUACCAGAGGAUUCACCAUUAUGAUCACCAUCUUCC [yh27]”, the selection result with RNA polymerase II was “selected”. Consider “GAGCCUACAAAUUAAAUCUAGCCAGAAGCAUUCUAUCUUCC [yh38]”, for which, in the series on RNA polymerase II, the selection result is given as “selected”.

For “GAGCCUUAAACACUGACUUCCCAUUCCCUCUCCCC [yh16]”, in the series with RNA polymerase II, the selection result is “selected”.

On to “GAGCUAAGACACAGAUACCCAGAAAGAUCCAAACCUCUACCGCAAAGUCAAGGUAGACAUUUCCC [yh35]”, for which the selection result with RNA polymerase II was “selected”. In the case of GAGGCACACACUCACACACCCC [yh7], in the series with RNA polymerase II, the selection result was “selected”. Regarding GAGUCCCACACACACACCACACCACC [yh36], the selection result with RNA polymerase II was “selected”. For “GCAAAAUGAGUACUUAGACAUGCUCUGUAUUUGUGCUGUACAGUACGGUAACAC [yh6]”, the selection result with RNA polymerase II was “selected”. GCAGCAACACACACACACACACACCC [yh23]: the selection result in the series on RNA polymerase II is reported as “selected”. Turning to “GCAGCAACACACAGCACACACAUACACCCACCGUACUAAGCAUCC [yh26]”, in the series on RNA polymerase II, the selection result is given as “selected”. Turning to “GCAGCAACCACACAUCUAUACGGCCUUGAAAACCCCAUCC [yh29]”, in the series with RNA polymerase II, the selection result is recorded as “selected”. Still for that read-out and setting: under “GCAGCAACUUCAAAAAAAAUUACAAAAAGUGCUUUCUGAACUGAACAAAAAAGAGUAAAGUUAGUCGCGUAAAGUACAUCU [yh39]” stands “selected”; under “GCAGCACUCACUUACACAUUCACACACACAACAUACACCCC [yh33]”, “selected”. Take “GCAGCACUUAUGGUCCAUAUUAGUGUCUACUACCCUGGUUAUGGAAGGUUAUGAUACCGCACUACUGAACGCACUGUAUGCC [yh43]”: in the series on RNA polymerase II, the selection result is “selected”. Take “GCAGCAGACACACGUACACACACACAUACAUAACCUAUC [yh21]”: the selection result with RNA polymerase II was “selected”. “GCAGCAGCACUCAUCGGUUCAUCAUCUAUGUAAAGGUGCUUCUCCACCAUGUGC [yh28]”: the selection result in the series on RNA polymerase II is on record as “selected”. For the sequence “GCAGCAUAUCAGCCAUGUACAUCCCUGUCCCCC [yh22]”, the selection result with RNA polymerase II is “selected”. Still for that read-out and setting: the entry for “GCAGCAUGAAAGUCACAGUUCUAAACAUUCAUUCUGUGCC [yh20]” is “selected”. Regarding “GCAGCAUGAACCAAACACCUUCCACUAGUCCCAUCC [yh25]”, in the series with RNA polymerase II, the selection result is “selected”. Regarding GCAGCCCACAAACCACACCC [yh19], the selection result in the series on RNA polymerase II is on record as “selected”. Same read-out and setting: the entry for GCAGCCCACACAUCAUACACACACACCCC [yh17] is “selected”; for “GCAGCGUUAGUACAUACCCUUCCUCACCAUUGUUCCCCCAUCC [yh34]” it is “selected”; for “GCAGCUUAAACUGCCUGACCGGUAAGAAACUGACCAACAUGCGUGCUUCCGGUACUGACGAAGCCUUCAUCC [yh18]” it is “selected”.

Regarding “GCAGCUUUACUUAACAGUUGAGCUAAUUUACACUCCCAUGGAUAGUGUAUAAGUGUUUCAUUUUCGCCC [yh24]”, in the series with RNA polymerase II, the selection result was “selected”.

Consider “GCCCACAAGAUUCCACGAUAGAUAUCAAGGAUUUAAAGCUGAUUCAGUGUAUAGUACAUC [yh10]”, for which, in the series with RNA polymerase II, the selection result is on record as “selected”.

As for “GGGAAUUCGGAGCGGGAUCGGUUGCAUUAGCUAAGCCUGAGAAGGUGAUGUUGUUGCC [yh8]”, in the series with RNA polymerase II, the selection result is listed as “selected”. Turning to “GUACGAGCGGACCCCACAGUUUUAAGCCUAAACUUGGCCUUAUGUAGAAUUUCUUGAUAUCAUUAUCAUCUUUGUCGUAGUCCCAUC [yh5]”, the selection result in the series on RNA polymerase II is listed as “selected”. Still for that read-out and setting: under “GUAGUAAUCGUCUUCAUUCUCAUGGUGUUCAUCGUUCUCUAUGCC [yh42]” stands “selected”. With “GUCACAAUCAUCCCUAAUAAUGUUCCUCCGCAUCGUCCC [RAP #15]”, the “functional effect of the aptamer” value is reported as “active” in series [1] (in vitro transcription: RNAP pausing, Rho-dependent termination enhanced by NusG) and “active” in series [2] (inhibiting, Rho-dependent, abolished by bicyclomycin).

“UACCGUGACGUGCCAUCCAGUCCAUUUCGCCGUGGUAUUGU [RAP #14908]”: the “functional effect of the aptamer” value in series [3] was “not active”; in series [2] (GFP transcript vs no RAP), above 1.5 fold. Turning to “UCACAUAACAUUCACACAUGCACACAUGUACCACAGCCAUGCCCACAUACCACAGCCACGCAUCAUCC [yh41]”, in the series with RNA polymerase II, the selection result was “selected”. On the same count and under the same terms, under “UUCCCAACGUGUUAGAAUUAUAGGCAUGACCCACUGUGCC [yh4]” stands “selected”.
